Results are given in words; binding and its absence hold for the method and conditions named. In cells and extracts the contact can be indirect. These calls come from enrichment with a bait or labelling near it, and not all partners need be listed. A no says only that the protein was not detected with the bait.

Sequences of proteins named here, by UniProt entry; tags and fusion partners are left off.
UniProt Q9UGL1: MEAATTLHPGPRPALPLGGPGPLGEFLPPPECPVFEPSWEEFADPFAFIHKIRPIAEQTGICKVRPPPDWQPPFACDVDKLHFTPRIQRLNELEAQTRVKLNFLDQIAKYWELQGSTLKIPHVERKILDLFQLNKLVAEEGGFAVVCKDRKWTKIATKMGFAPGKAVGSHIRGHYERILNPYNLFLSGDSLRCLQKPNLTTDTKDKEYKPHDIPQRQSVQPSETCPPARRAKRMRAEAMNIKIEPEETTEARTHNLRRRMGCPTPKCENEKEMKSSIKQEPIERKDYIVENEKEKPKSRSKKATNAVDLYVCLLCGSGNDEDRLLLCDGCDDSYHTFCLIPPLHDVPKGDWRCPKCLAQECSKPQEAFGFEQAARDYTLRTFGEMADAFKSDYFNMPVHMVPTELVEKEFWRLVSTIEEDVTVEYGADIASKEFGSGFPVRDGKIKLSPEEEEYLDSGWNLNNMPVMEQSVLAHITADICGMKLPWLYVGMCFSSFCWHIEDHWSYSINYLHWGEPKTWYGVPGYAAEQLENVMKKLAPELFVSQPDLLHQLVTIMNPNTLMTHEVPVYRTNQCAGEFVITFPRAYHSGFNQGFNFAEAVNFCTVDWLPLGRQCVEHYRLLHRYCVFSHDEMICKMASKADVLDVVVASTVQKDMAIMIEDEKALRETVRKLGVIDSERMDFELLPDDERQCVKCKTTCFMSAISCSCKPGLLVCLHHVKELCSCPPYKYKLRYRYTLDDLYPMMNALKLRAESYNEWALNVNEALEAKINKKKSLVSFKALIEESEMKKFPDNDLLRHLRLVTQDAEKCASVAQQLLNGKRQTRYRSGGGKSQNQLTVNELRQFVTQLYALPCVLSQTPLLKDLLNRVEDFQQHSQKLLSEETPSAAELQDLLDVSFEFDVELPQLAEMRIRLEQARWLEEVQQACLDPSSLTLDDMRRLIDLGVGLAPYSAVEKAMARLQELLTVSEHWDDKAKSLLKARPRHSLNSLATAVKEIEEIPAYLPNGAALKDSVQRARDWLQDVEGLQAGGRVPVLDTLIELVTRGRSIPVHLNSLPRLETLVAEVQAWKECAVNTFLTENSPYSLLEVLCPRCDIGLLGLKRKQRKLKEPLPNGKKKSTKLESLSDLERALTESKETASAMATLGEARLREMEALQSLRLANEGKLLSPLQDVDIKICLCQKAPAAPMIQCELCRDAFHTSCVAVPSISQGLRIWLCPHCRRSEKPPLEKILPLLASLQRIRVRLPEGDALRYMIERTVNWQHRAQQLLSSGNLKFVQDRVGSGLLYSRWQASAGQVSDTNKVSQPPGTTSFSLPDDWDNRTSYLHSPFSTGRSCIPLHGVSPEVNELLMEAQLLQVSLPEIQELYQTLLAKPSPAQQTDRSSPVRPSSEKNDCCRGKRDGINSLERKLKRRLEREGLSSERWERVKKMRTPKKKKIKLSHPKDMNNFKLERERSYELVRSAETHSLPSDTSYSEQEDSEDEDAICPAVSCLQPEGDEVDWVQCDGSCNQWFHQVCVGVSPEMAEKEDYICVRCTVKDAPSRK
UniProt Q12778: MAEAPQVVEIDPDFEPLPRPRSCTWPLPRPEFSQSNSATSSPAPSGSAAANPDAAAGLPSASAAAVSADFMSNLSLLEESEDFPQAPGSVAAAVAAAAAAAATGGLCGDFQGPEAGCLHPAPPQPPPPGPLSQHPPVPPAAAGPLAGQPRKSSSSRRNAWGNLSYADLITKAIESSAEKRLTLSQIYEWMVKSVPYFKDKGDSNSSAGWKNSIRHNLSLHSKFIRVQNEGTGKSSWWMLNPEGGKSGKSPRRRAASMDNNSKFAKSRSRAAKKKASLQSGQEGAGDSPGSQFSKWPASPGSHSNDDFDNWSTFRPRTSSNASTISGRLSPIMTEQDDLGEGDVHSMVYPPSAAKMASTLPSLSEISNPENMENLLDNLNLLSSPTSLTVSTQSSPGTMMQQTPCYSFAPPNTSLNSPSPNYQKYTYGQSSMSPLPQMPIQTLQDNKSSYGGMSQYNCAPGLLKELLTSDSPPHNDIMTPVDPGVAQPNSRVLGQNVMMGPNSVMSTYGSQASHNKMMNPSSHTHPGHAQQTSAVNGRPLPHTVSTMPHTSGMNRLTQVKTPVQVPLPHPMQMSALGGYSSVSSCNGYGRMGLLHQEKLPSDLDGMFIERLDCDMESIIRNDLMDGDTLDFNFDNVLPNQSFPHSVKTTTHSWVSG
UniProt O43524: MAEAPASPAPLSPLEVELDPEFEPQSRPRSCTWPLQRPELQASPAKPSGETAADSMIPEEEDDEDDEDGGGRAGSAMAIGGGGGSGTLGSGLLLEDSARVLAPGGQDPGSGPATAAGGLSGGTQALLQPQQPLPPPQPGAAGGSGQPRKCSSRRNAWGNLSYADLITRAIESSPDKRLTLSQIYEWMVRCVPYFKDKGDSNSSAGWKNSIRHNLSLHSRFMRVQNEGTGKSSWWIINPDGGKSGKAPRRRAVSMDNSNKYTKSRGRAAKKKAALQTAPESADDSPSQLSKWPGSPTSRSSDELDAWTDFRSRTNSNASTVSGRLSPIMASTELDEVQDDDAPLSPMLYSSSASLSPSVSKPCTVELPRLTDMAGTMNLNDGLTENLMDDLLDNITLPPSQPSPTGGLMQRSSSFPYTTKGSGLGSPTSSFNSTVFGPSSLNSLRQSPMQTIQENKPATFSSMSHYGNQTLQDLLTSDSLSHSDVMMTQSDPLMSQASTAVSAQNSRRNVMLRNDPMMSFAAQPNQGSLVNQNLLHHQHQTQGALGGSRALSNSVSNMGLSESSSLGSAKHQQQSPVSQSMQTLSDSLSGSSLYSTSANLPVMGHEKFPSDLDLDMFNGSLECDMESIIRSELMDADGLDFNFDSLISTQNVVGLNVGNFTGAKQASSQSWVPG
UniProt P98177: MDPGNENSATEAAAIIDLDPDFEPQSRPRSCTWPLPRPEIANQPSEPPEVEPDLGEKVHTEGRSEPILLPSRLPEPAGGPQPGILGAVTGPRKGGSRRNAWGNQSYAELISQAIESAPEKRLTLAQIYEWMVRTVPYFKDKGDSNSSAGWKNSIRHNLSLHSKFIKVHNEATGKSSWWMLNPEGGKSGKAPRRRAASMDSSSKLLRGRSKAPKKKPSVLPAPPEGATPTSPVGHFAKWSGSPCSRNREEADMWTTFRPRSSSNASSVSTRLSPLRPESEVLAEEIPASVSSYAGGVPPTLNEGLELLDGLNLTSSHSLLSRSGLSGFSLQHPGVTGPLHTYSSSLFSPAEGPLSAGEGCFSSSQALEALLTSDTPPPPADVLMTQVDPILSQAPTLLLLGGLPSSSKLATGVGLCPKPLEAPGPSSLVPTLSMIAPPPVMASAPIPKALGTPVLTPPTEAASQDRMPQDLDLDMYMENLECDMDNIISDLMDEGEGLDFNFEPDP
UniProt Q13547: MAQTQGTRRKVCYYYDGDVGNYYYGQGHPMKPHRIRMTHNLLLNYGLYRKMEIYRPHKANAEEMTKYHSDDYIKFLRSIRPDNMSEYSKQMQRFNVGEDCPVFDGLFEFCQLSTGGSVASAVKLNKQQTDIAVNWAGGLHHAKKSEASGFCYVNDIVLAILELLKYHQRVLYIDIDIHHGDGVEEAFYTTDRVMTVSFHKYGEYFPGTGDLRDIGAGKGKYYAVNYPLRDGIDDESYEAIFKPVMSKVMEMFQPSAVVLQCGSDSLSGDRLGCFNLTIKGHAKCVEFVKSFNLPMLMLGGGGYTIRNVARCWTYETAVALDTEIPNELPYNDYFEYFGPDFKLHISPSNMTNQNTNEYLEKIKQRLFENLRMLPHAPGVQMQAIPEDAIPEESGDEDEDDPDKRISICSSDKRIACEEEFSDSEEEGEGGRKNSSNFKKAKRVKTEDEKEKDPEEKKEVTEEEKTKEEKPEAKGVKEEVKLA

The results in this text go back to article doi:10.1101/2025.03.10.641595.

This test deals with KDM5B (human (endogenous in WM3734)) (UniProt Q9UGL1). Put plainly: affinity purification with mass spectrometry.

On to FOXO1 (from UniProt Q12778 1-655), for which the binding result was “no binding”.
With FOXO3 (from UniProt O43524 1-673) the entry was “no binding”; with FOXO4 (from UniProt P98177 1-505), “no binding”.
Take “HDAC1 (from UniProt Q13547 1-482) (enzyme)”: the binding entry is given as “binds”.
